Measured values taken from patent US8501715B2, “Oxidized lipids and uses thereof in the treatment of inflammatory diseases and disorders” (Vascular Biogenics Ltd., priority 2003, dated 2013).

Tested on: TGF-β
Assay: TGF-β levels in Apo-E KO mice
Assay type: in vivo, mouse
Conditions: End

2,5′-Aldehyde Lecithin Ether [ALLE]
TGF-β (i.p. immunization x4 every 2 weeks (ALLE 150 μg/mouse coupled to PPD; PPD alone)): 12032 ± 2308 pmol/mL
TGF-β (oral 10 μg/mouse L-ALLE+D-ALLE every other day for 5 days): 18010 ± 1373 pmol/mL
TGF-β (oral 1 mg/mouse L-ALLE+D-ALLE every other day for 5 days): 13388 ± 1489 pmol/mL
